Measurements published in US9522177B2, “Antimicrobial and immunostimulatory system comprising an oxidoreductase enzyme” (Institute of Technology Sligo, priority 2006, dated 2016).
For at least one compound, name, drawing or mass did not settle the structure.

Tested on: clinical isolates of Mastitis causing Staphylococcus aureus
Assay: Inhibition assay (3 day repeats), mastitis isolates
Format: cell-based
Conditions: Mastitis causing Staphylococcus aureus isolate number 15; FIG. 11b
Protocol: 22 isolates of Staphylococcus aureus from clinical mastitis obtained from Sligo regional Veterinary Laboratories are grown on nutrient agar or in nutrient broth for 24 hrs at 37° C.
Agar plates are inoculated by swabbing overnight culture onto the plate surface. Plates are allowed to stand at room temperature for 15 minutes before use. Wells 8.2 mm diameter are bored into the surface of the agar. One hundred and eighty μl of sample is placed into each well. The samples diffuse into the agar around the well and are assayed for an ability to produce a zone of inhibition. Plates are incubated for 24, 48 or 72 hrs and zones of inhibition are measured using an Autodata automatic zone reader. The diameter of zones, including the diameter of the well (8.2 mm), is recorded.

CN(C)[C@@H]1C(O)=C(C(N)=O)C(=O)[C@@]2(O)C(O)=C3C(=O)c4c(O)cccc4[C@@](C)(O)[C@H]3C[C@@H]12 [Tetracycline]
sensitivity of clinical isolate number 15: resistant
